# No constants are given. Whether binding was seen depends on the method and setting. Binding seen in cells or lysates may run through a third protein. Some entries that bind do so weakly or less than the wild type. For part of these data: Tags and fused reporters may be left off the sequences shown.
# Sequences of proteins named here, by UniProt entry; tags and fusion partners are left off.
# UniProt Q7Z434: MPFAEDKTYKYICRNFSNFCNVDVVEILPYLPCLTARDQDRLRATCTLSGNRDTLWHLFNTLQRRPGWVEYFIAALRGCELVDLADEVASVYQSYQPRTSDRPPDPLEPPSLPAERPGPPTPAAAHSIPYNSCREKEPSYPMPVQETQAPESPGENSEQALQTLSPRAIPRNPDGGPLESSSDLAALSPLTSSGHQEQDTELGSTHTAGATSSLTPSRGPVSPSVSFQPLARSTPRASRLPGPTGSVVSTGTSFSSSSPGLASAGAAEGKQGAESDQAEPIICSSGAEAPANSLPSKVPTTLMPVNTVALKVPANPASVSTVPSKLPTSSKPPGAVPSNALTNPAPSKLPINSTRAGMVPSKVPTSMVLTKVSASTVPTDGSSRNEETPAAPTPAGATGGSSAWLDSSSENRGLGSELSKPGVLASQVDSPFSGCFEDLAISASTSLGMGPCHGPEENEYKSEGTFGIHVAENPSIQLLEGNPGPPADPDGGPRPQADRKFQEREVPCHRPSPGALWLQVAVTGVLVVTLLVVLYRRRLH
# T1: HA-tagged RIG-I (retinoic acid-inducible gene 1) (UniProt O95786)
# T1 sequence: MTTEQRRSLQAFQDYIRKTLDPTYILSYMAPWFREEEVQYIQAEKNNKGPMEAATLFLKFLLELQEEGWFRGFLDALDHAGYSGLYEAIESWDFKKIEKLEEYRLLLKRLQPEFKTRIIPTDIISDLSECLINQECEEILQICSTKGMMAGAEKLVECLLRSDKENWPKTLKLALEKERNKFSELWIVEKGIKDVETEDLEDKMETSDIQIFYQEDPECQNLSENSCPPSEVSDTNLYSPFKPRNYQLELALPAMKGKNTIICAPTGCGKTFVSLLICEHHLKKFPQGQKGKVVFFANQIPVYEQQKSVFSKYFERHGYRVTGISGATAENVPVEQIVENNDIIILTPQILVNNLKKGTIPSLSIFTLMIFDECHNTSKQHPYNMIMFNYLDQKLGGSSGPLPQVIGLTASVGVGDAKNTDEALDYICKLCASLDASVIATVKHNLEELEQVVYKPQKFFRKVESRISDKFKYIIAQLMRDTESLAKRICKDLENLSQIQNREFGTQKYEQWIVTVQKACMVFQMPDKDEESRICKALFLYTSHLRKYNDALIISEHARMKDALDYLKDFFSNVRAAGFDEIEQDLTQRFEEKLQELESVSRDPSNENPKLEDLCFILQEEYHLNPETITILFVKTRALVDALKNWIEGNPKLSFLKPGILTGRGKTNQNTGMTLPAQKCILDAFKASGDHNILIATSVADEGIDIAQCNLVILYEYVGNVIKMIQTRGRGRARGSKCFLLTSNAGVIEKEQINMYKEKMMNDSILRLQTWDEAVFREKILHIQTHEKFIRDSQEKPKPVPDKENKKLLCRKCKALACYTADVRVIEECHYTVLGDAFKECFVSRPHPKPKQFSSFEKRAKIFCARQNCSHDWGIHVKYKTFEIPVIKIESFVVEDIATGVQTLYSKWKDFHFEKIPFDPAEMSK
# T2: RIG-I (retinoic acid-inducible gene 1), endogenous (human (endogenous in A549)) (UniProt O95786)
# T2 sequence: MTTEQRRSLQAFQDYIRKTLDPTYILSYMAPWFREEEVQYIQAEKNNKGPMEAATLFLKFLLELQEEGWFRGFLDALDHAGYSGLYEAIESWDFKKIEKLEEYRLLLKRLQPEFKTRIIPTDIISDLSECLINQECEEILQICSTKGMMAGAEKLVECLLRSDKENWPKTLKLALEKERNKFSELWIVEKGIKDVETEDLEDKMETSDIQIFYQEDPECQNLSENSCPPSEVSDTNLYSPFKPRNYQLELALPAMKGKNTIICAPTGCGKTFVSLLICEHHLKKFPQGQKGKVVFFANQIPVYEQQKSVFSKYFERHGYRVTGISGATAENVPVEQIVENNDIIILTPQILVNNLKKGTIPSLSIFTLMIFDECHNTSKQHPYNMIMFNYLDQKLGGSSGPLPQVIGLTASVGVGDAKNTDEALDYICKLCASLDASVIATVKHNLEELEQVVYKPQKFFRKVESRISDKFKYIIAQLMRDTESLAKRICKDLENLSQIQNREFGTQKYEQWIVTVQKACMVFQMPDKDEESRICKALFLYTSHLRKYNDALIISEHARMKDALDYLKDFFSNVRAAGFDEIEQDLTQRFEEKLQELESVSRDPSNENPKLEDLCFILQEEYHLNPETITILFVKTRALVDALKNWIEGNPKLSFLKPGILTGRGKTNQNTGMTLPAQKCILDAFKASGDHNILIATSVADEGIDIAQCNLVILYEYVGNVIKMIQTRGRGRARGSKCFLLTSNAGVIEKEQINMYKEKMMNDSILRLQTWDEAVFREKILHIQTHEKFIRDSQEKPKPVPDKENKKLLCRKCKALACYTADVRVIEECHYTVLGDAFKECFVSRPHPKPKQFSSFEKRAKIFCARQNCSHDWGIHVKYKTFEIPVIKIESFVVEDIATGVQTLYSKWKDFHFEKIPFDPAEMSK
# Legend:
# [1] = biological target: MYC-tagged MAVS (mitochondrial antiviral signaling protein), full-length (human (cDNA from A549 cells)) (UniProt Q7Z434); test: co-IP; HEK293T cells co-transfected with the tagged plasmids for 24 h; lysates precipitated overnight at 4°C with anti-HA or anti-MYC magnetic beads; washed three times with TENT buffer; blots with HA and MYC antibodies
# [2] = biological target: T1, HA-tagged RIG-I (retinoic acid-inducible gene 1); test: as above
# [3] = biological target: T2, RIG-I (retinoic acid-inducible gene 1), endogenous (human (endogenous in A549)); test: co-IP; endogenous proteins; A549 cells transfected with poly(I:C)-H, poly(I:C)-L or poly(dA:dT); lysates precipitated with RIG-I antibody or isotype control overnight at 4°C, Protein A magnetic beads 4 h; washed with TENT buffer; immunoblot
binder,measurement,setting,value
"HA-tagged DHX35 (DEAH (Asp-Glu-Ala-His) box polypeptide 35), full-length (protein, UniProt Q9H5Z1 1-703) MAAPVGPVKFWRPGTEGPGVSISEERQSLAENSGTTVVYNPYAALSIEQQRQKLPVFKLRNHILYLIENYQTVVIVGETGCGKSTQIPQYLAEAGWTAEGRVVGVTQPRRVAAVTVAGRVAEERGAVLGHEVGYCIRFDDCTDQLATRIKFLTDGMLVREMMVDPLLTKYSVIMLDEAHERTLYTDIAIGLLKKIQKKRGDLRLIVASATLDADKFRDFFNQNETSDPARDTCVILTVEGRTFPVDIFYLQSPVPDYIKSTVETVVKIHQTEGDGDVLAFLTGQEEVETVVSMLIEQARALARTGMKRHLRVLPMYAGLPSFEQMKVFERVSRSVRKVIVATNVAETSITISGIVYVIDCGFVKLRAYNPRTAIECLVVVPVSQASANQRAGRGGRSRSGKCYRLYTEEAFDKLPQSTVPEMQRSNLAPVILQLKALGIDNVLRFHFMSPPPAQSMVQALELLYALGGLDKDCRLTEPLGMRIAEFPLNPMFAKMLLESGNFGCSQEILSIAAMMQIQNIFVVPPNQKSHAIRVHRKFAVEEGDHLTMLNIYEAFIKHNKDSKWCQEHFLNYKGLVRAATVREQLKKLLVKFQVPRKSSEGDPDLVLRCIVSGFFANAARFHSTGAYRTIRDDHELHIHPASVLYAEKPPRWVIYNEVIQTSKYYMRDVTAIESAWLLELAPHFYQQGTHLSLKAKRAKVQDP",binding,[1],binds
"MYC-tagged DHX35, full-length (protein, UniProt Q9H5Z1 1-703) MAAPVGPVKFWRPGTEGPGVSISEERQSLAENSGTTVVYNPYAALSIEQQRQKLPVFKLRNHILYLIENYQTVVIVGETGCGKSTQIPQYLAEAGWTAEGRVVGVTQPRRVAAVTVAGRVAEERGAVLGHEVGYCIRFDDCTDQLATRIKFLTDGMLVREMMVDPLLTKYSVIMLDEAHERTLYTDIAIGLLKKIQKKRGDLRLIVASATLDADKFRDFFNQNETSDPARDTCVILTVEGRTFPVDIFYLQSPVPDYIKSTVETVVKIHQTEGDGDVLAFLTGQEEVETVVSMLIEQARALARTGMKRHLRVLPMYAGLPSFEQMKVFERVSRSVRKVIVATNVAETSITISGIVYVIDCGFVKLRAYNPRTAIECLVVVPVSQASANQRAGRGGRSRSGKCYRLYTEEAFDKLPQSTVPEMQRSNLAPVILQLKALGIDNVLRFHFMSPPPAQSMVQALELLYALGGLDKDCRLTEPLGMRIAEFPLNPMFAKMLLESGNFGCSQEILSIAAMMQIQNIFVVPPNQKSHAIRVHRKFAVEEGDHLTMLNIYEAFIKHNKDSKWCQEHFLNYKGLVRAATVREQLKKLLVKFQVPRKSSEGDPDLVLRCIVSGFFANAARFHSTGAYRTIRDDHELHIHPASVLYAEKPPRWVIYNEVIQTSKYYMRDVTAIESAWLLELAPHFYQQGTHLSLKAKRAKVQDP",binding,[2],binds
"DHX35 (DEAH box polypeptide 35), endogenous (protein, UniProt Q9H5Z1 1-703) MAAPVGPVKFWRPGTEGPGVSISEERQSLAENSGTTVVYNPYAALSIEQQRQKLPVFKLRNHILYLIENYQTVVIVGETGCGKSTQIPQYLAEAGWTAEGRVVGVTQPRRVAAVTVAGRVAEERGAVLGHEVGYCIRFDDCTDQLATRIKFLTDGMLVREMMVDPLLTKYSVIMLDEAHERTLYTDIAIGLLKKIQKKRGDLRLIVASATLDADKFRDFFNQNETSDPARDTCVILTVEGRTFPVDIFYLQSPVPDYIKSTVETVVKIHQTEGDGDVLAFLTGQEEVETVVSMLIEQARALARTGMKRHLRVLPMYAGLPSFEQMKVFERVSRSVRKVIVATNVAETSITISGIVYVIDCGFVKLRAYNPRTAIECLVVVPVSQASANQRAGRGGRSRSGKCYRLYTEEAFDKLPQSTVPEMQRSNLAPVILQLKALGIDNVLRFHFMSPPPAQSMVQALELLYALGGLDKDCRLTEPLGMRIAEFPLNPMFAKMLLESGNFGCSQEILSIAAMMQIQNIFVVPPNQKSHAIRVHRKFAVEEGDHLTMLNIYEAFIKHNKDSKWCQEHFLNYKGLVRAATVREQLKKLLVKFQVPRKSSEGDPDLVLRCIVSGFFANAARFHSTGAYRTIRDDHELHIHPASVLYAEKPPRWVIYNEVIQTSKYYMRDVTAIESAWLLELAPHFYQQGTHLSLKAKRAKVQDP",binding,[3],binds

# From publication PMC11262647
